Laboratory results published in PubChem BioAssay AID540303 (National Center for Advancing Translational Sciences (NCATS), 2011).
The whole screen tested about 330,000 compounds, of which about 1,000 (0.3%) were called active. The shares of active, inactive and inconclusive entries below differ from those in the screen. The call rests on the fitted dose curve; in most records, active means well fitted inhibition curve with a large enough effect; inconclusive means small, poorly fitted or top-dose-only effect; inactive means no such curve, though single readings can be large or run the other way; tested in mouse RAW 264.7 cells. Potencies of inconclusive entries are doubtful fits and often do not repeat.

Test: qHTS for Inhibitors of Cell Surface uPA Generation; further: nearly all actives have a fitted effect of over 55% in size
Details: cell surface uPA generation assay; series mostly up to 38.3 µM; activity change, negative = inhibition: at the top concentration
Procedure, shortened: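 RAW 264.7 cells (4000/well) were plated overnight at 37 C and then given compounds in a 1:5 series (up to 38.3 uM final) plus reagent for 24 h. Intracellular ATP was measured by ATP-Lite luminescence and stays elevated when uPA-dependent LF entry is blocked.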
On the % scale 0 is the no-effect control and ±100 the full control effect; potency means the concentration at half of the fitted maximal effect.

SMILES | Potency | activity change, negative = inhibition
C#CC(=O)CC1(CN(Cc2ccccc2)C(=O)OC(C)(C)C)CCCCC1 | inconclusive: 10 µM [inhibitor, partial curve, poor fit] | 
CCC1(C)Cc2c(sc3nc(SC)[nH]c(=S)c23)CO1 (configuration not stated) |  | inactive: 3.99%
CN(CC(=O)NC1CCN(Cc2ccccc2)CC1)S(=O)(=O)c1ccc(Cl)s1 | inconclusive: 0.447 µM [inhibitor, full curve, poor fit] | 
Nc1cc2nc3ccccc3oc-2cc1=O | inconclusive: 10 µM [inhibitor, partial curve] | 
O=C(NC12CC3CC(CC(C3)C1)C2)c1ccc(N2CCNCC2)c([N+](=O)[O-])c1 | inconclusive: 2.82 µM [inhibitor, partial curve, poor fit] | 
O=C(NCc1cccnc1)c1ccc(COc2ccc(Cl)cc2)cc1 | inconclusive: 31.6 µM [inhibitor, single point] | 
CC(=NNC(=O)c1cccs1)c1ccc2c(c1)OCCO2 | inconclusive: 10 µM [inhibitor, single point] | 
CN(CC(=O)Nc1cccc(S(=O)(=O)N2CCOCC2)c1)CC(=O)Nc1ccc(Cl)c(C(F)(F)F)c1 | inconclusive: 7.08 µM [inhibitor, partial curve, poor fit] | 
CCOc1ccccc1-n1c(=S)sc2c(=O)n(-c3ccc(C)cc3)c(=S)[nH]c21 |  | inactive: 7.21%
C=CCN1C(=O)S/C(=C/c2ccc(Sc3nc4ccccc4[nH]3)o2)C1=O |  | inactive: -7.1%
Cc1ccc(-c2cc(-c3ccccc3)no2)cc1 | inconclusive: 7.08 µM [inhibitor, partial curve, poor fit] | 
CC(=O)N1CCCN(Cc2cn(-c3ccc(C)cc3)nc2-c2cccc(C)c2)CC1 | inconclusive: 10 µM [inhibitor, single point] | 
COc1ccc(-n2c(-c3ccc(OC)c(OC)c3)n[nH]c2=S)cc1 | inconclusive: 2.82 µM [inhibitor, single point] | 
O=[N+]([O-])c1ccc2[nH]c(=S)[nH]c2c1 |  | inactive: -2.17%
COc1ccc(-n2nnnc2-c2ccccc2)cc1 | inconclusive: 1.12 µM [inhibitor, full curve, poor fit] | 
COC(=O)c1ccc(COc2ccc3c4c(c(=O)oc3c2)CCC4)o1 |  | inactive: 1.27%
COc1ccc(-c2cc3onc(-c4c(Cl)cccc4Cl)c3c(=O)n2C)cc1 | inconclusive: 8.91 µM [inhibitor, single point] | 
COC(=O)c1cc(NC(=O)c2cccs2)ccc1N1CCOCC1 |  | inactive: -4.51%
Cc1cc2nc(-c3ccc(SCC(=O)N4CCN(C(=O)c5ccco5)CC4)nc3)[nH]c2cc1C | inconclusive: 5.01 µM [inhibitor, partial curve, poor fit] | 
Fc1cc2nc(-c3ccncc3)[nH]c2cc1F |  | inactive: -1.31%
COc1cccc(C(=O)Nc2c(C)n[nH]c2C)c1 |  | inactive: 1.3%
COCCNC(=O)C(c1ccc(C)cc1)N(C(=O)C(=O)NC1CCCC1)c1ccc2c(c1)OCCO2 (configuration not stated) | inconclusive: 0.01 µM [inhibitor, full curve, poor fit] | 
Cc1cc(C)n(-c2nc3ccccc3nc2N2CCCCCC2)n1 |  | inactive: 9.44%

SMILES | Potency | activity change, negative = inhibition
Cc1nc(SCC(=O)NC2CCCC2)[nH]c(=O)c1Cc1ccccc1 |  | inactive: 7.02%
CCOc1ccc(C(=O)/C=C/c2ccccc2C(F)(F)F)cc1 |  | inactive: 12%
COCCC1CCCCN1C(=O)c1cc(COc2ccc(C)nc2)on1 (configuration not stated) | inconclusive: 12.6 µM [inhibitor, single point] | 
CCC(C)NS(=O)(=O)c1ccc(NC(=O)C2CCN(C(=O)c3ccco3)CC2)cc1 (configuration not stated) |  | inactive: 1.75%
CCOC(=O)N1CCN(S(=O)(=O)c2ccc(C(=O)NNc3nc4c(C)cccc4s3)cc2)CC1 | inconclusive: 12.6 µM [inhibitor, single point] | 
CCOC(=O)C1=C(C)c2ccccc2N(C(=O)OC)C1(C)C(=O)OCC (configuration not stated) | inconclusive: 28.2 µM [inhibitor, single point] | 
COc1cccc2nc3cc(C)c(C)cc3nc12 | active: 3.16 µM | 
O=C(/C=C/c1ccco1)OCC(=O)c1ccc(OC(F)F)cc1 | inconclusive: 28.2 µM [inhibitor, single point] | 
CCOc1ccc(C(=O)Nc2cccc(NC(=O)c3cccs3)c2)cc1[N+](=O)[O-] | inconclusive: 22.4 µM [inhibitor, single point] | 
COc1ccc(NS(=O)(=O)c2cc(NC(=O)c3sccc3C)ccc2N2CCOCC2)cc1 | inconclusive: 8.91 µM [inhibitor, partial curve, poor fit] | 
Clc1cncc(Cl)c1N/N=C/c1ccncc1 |  | inactive: -7.89%
Cc1cc(Br)c(Oc2cc(NN3CCCCC3)c([N+](=O)[O-])cc2[N+](=O)[O-])c(Br)c1 | inconclusive: 12.6 µM [inhibitor, single point] | 
Cc1sc(C(C2C(=O)CC(C)(C)CC2=O)C2C(=O)CC(C)(C)CC2=O)cc1[N+](=O)[O-] |  | inactive: -2.95%
C[C@@H]1COC(=O)[C@@H](Cc2ccc(F)cc2)C/C=C\C[C@H](CC(=O)N(CCO)Cc2ccccc2)C(=O)N1 | inconclusive: 3.16 µM [inhibitor, single point] | 
COc1ccc2[nH]c(=O)c(CN(CC3CCCO3)C(=S)Nc3cccc(C)c3)cc2c1 (configuration not stated) |  | inactive: -2.99%
CCc1cc(C(=O)NNC(=O)CCl)sc1C | inconclusive: 22.4 µM [inhibitor, single point] | 
CC(C)CNC(=S)N1CCC(Cc2ccccc2)CC1 |  | inactive: -2.92%
Cc1ccc(S(=O)(=O)Oc2cccc(/C=N/n3cnnc3)c2)cc1 | inconclusive: 14.1 µM [inhibitor, single point] | 
O=C(c1ccc(CS(=O)c2ccccc2Cl)o1)N1CCN(c2ccccc2)CC1 (configuration not stated) | inconclusive: 1.12 µM [inhibitor, full curve, poor fit] | 
COc1ccc(C(CCN2CCOCC2)c2c(OC)cc(OC)c3c(-c4ccccc4)cc(=O)oc23)cc1 (configuration not stated) | active: 14.1 µM | 
CCN(CC)CCN(C(=O)CCS(=O)(=O)c1ccccc1)c1nc2c(C)cc(C)cc2s1 | inconclusive: 10 µM [inhibitor, partial curve, poor fit] | 
NCCCn1c(C(=O)c2cc(Cl)c(N)c(Cl)c2)c2ccc([N+](=O)[O-])cc2[n+]1[O-] | inconclusive: 0.447 µM [inhibitor, full curve, poor fit] | 
Cc1ccc(O)c(N=Nc2nccs2)c1 | active: 2.24 µM | 

SMILES | Potency | activity change, negative = inhibition
Cc1ccc(-n2nc3c(c2NC(=O)c2cccs2)CSC3)cc1 |  | inactive: 6.85%
CC1Cc2ccccc2N1C(=O)C1CCCN(S(=O)(=O)c2cccc3cccnc23)C1 (configuration not stated) | inconclusive: 11.2 µM [inhibitor, single point] | 
Cc1c(NC(=O)COc2c(F)c(F)c(F)c(F)c2F)c(=O)n(-c2ccccc2)n1C |  | inactive: 2.06%
COc1ccc(-n2c(SCC(=O)NCCCN3CCCC3=O)nnc2C(C)N2CCCCC2)cc1 (configuration not stated) | inconclusive: 8.91 µM [inhibitor, partial curve, poor fit] | 
CC(C)Cn1c(N)c(C(=O)COC(=O)c2cnc(Cl)c(Cl)c2)c(=O)n(C)c1=O | inconclusive: 10 µM [inhibitor, partial curve, poor fit] | 
F[B-](F)(F)COCc1ccccc1Br | inconclusive: 11.2 µM [inhibitor, single point] | 
CN(Cc1ccco1)C(=O)C1CCCN(c2ncnc3c2nc2n3CCCCC2)C1 (configuration not stated) | inconclusive: 2.24 µM [inhibitor, partial curve, poor fit] | 
Cc1ccccc1OCC(=O)N/N=C/c1cccc(Oc2ccc([N+](=O)[O-])cc2[N+](=O)[O-])c1 | active: 11.2 µM | 
O=C(Nc1ccc(N2CCCC2)cc1)c1cc2ccccc2o1 | inconclusive: 11.2 µM [inhibitor, single point] | 
COc1ccc(-c2cn3cc(C(F)(F)F)cc(Cl)c3n2)cc1 |  | inactive: -11.5%
COc1ccc(C2CC(c3cccc(C(F)(F)F)c3)=NN2c2ccc(S(N)(=O)=O)cc2)cc1 (configuration not stated) | inconclusive: 28.2 µM [inhibitor, single point] | 
C=CC[C@H](CC(=O)N(CCO)Cc1ccccc1)C(=O)N[C@@H](COC(=O)[C@@H](CC=C)Cc1ccc(F)cc1)Cc1ccccc1 | inconclusive: 3.16 µM [inhibitor, partial curve, poor fit] | 
CCC(C)[C@H](NC(=O)N1CCn2c1nc1ccccc12)C(=O)NCCc1ccc(OC)c(OC)c1 (some centres not stated) | inconclusive: 7.94 µM [inhibitor, partial curve, poor fit] | 
Cc1ccc(NC(=O)c2cnn(-c3ccccc3)c2C)c(C)c1 |  | inactive: -0.581%
Cc1cc(C)n(-c2ccc(NC(=O)C3CCCCN3Cc3cccc4c3OCO4)cc2)n1 (configuration not stated) | inconclusive: 20 µM [inhibitor, single point] | 
CCNc1nc(NCC)nc(SCCOc2ccc(C)cc2)n1 |  | inactive: -5.91%
CCC(CC)C(=O)c1c[nH]c(C(=O)NN)c1 | inconclusive: 10 µM [inhibitor, single point] | 
COC(=O)C1=C(C)N(Cc2ccccc2)C(=NCc2ccccc2)N[C@H]1c1cccc(F)c1 | inconclusive: 10 µM [inhibitor, single point] | 
COC(=O)c1cc(NC(=O)c2cc(-c3ccccc3Cl)oc2C(F)(F)F)ccc1N1CCOCC1 | inconclusive: 7.94 µM [inhibitor, single point] | 
CCOc1ccc(NCc2cc3cc(OC)ccc3[nH]c2=O)cc1 | inconclusive: 7.94 µM [inhibitor, single point] | 
CCOc1ccccc1N1CCN(C(=O)c2cc(S(=O)(=O)N(C)C)ccc2N2CCCC2)CC1 | inconclusive: 10 µM [inhibitor, single point] | 

3 structures already listed, arranged by heavy-atom count, rising.
SMILES | Potency | activity change, negative = inhibition
F[B-](F)(F)COCc1ccccc1Br | inconclusive: 11.2 µM [inhibitor, single point] | 
O=C(c1ccc(CS(=O)c2ccccc2Cl)o1)N1CCN(c2ccccc2)CC1 (configuration not stated) | inconclusive: 1.12 µM [inhibitor, full curve, poor fit] | 
C[C@@H]1COC(=O)[C@@H](Cc2ccc(F)cc2)C/C=C\C[C@H](CC(=O)N(CCO)Cc2ccccc2)C(=O)N1 | inconclusive: 3.16 µM [inhibitor, single point] | 

Taken from the listing (2 entries):
SMILES | Potency | activity change, negative = inhibition
F[B-](F)(F)COCc1ccccc1Br | inconclusive: 11.2 µM [inhibitor, single point] | 
CN(Cc1ccco1)C(=O)C1CCCN(c2ncnc3c2nc2n3CCCCC2)C1 (configuration not stated) | inconclusive: 2.24 µM [inhibitor, partial curve, poor fit] | 
